PubChem BioAssay AID504808 | Drosophila RNAi Screening Center, 2011
The screen tested about 21,000 reagents; this is a random part of those that have a named target and a result. Of all reagents, 18 (0.084%) are marked active. 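Raw counts without plate normalisation, one of two replicates; the ratio scores behind the calls were not deposited.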 Unmarked entries are inactive. Not stated in the record: the amount of reagent, the time to read-out.

Test: 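Fly genes required to hold E2F transcription in check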 (primary screen)
System: Drosophila S2 cells
Reagent: long dsRNA against Drosophila genes
Measured: 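Firefly luciferase driven by E2F sites, normalised to Renilla luciferase on the same minimal promoter, measured by plate reader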
Direction: E2F firefly: higher = more E2F reporter activity; Renilla normaliser: higher = more normaliser reporter signal
Active means: 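Called active if the normalised E2F reporter went up by over 50%; the cutoff is arbitrary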

The opening 2 records, ahead of the listing:
sut4 (sugar transporter 4) [DRSC07703] → E2F firefly, rep 1: 3002; Renilla normaliser, rep 1: 227
SpdS (Spermidine Synthase) [DRSC16408] → E2F firefly, rep 1: 1.42e5; Renilla normaliser, rep 1: 6123

The list itself, from the start:
sut4 (sugar transporter 4) [DRSC07703] → E2F firefly, rep 1: 3002; Renilla normaliser, rep 1: 227
SpdS (Spermidine Synthase) [DRSC16408] → E2F firefly, rep 1: 1.42e5; Renilla normaliser, rep 1: 6123
Stt3A [DRSC20514] → E2F firefly, rep 1: 1.47e5; Renilla normaliser, rep 1: 5185
CG4594 [DRSC02762] → E2F firefly, rep 1: 62225; Renilla normaliser, rep 1: 3323
CG17571 [DRSC01768] → E2F firefly, rep 1: 1.07e5; Renilla normaliser, rep 1: 4702
CG17571 [DRSC03755] → E2F firefly, rep 1: 1.03e5; Renilla normaliser, rep 1: 4027
mRpL19 (mitochondrial ribosomal protein L19) [DRSC16367] → E2F firefly, rep 1: 1.34e5; Renilla normaliser, rep 1: 6281
cDIP (Common Dpr-interacting protein) [DRSC14267] → E2F firefly, rep 1: 68350; Renilla normaliser, rep 1: 3276
CG12877 [DRSC14565] → E2F firefly, rep 1: 1.23e5; Renilla normaliser, rep 1: 5999
CG10628 [DRSC02080] → E2F firefly, rep 1: 98508; Renilla normaliser, rep 1: 4345
CG4686 [DRSC15622] → E2F firefly, rep 1: 1.39e5; Renilla normaliser, rep 1: 6263
Act42A (Actin 42A) [DRSC04835] → E2F firefly, rep 1: 97362; Renilla normaliser, rep 1: 4210
CG6028 [DRSC15951] → E2F firefly, rep 1: 64446; Renilla normaliser, rep 1: 3122
Gr63a (Gustatory receptor 63a) [DRSC08438] → E2F firefly, rep 1: 92218; Renilla normaliser, rep 1: 3704
CG3795 [DRSC18593] → E2F firefly, rep 1: 1832; Renilla normaliser, rep 1: 1040
ago (archipelago) [DRSC08463] → E2F firefly, rep 1: 57295; Renilla normaliser, rep 1: 3137
Acat2 (Acetyl-CoA acetyltransferase 2) [DRSC08630] → E2F firefly, rep 1: 1.01e5; Renilla normaliser, rep 1: 3978
Vajk3 [DRSC01883] → E2F firefly, rep 1: 78218; Renilla normaliser, rep 1: 3326
Ugt37A1 (UDP-glycosyltransferase family 37 member A1) [DRSC02114] → E2F firefly, rep 1: 98762; Renilla normaliser, rep 1: 3749
CG34334 [DRSC20643] → E2F firefly, rep 1: 1.36e5; Renilla normaliser, rep 1: 6736
CG14143 [DRSC10146] → E2F firefly, rep 1: 1.19e5; Renilla normaliser, rep 1: 5790
CG13071 [DRSC09954] → E2F firefly, rep 1: 1.44e5; Renilla normaliser, rep 1: 7736
CG32762 [DRSC18298] → E2F firefly, rep 1: 1.10e5; Renilla normaliser, rep 1: 4727
CG13060 [DRSC09943] → E2F firefly, rep 1: 1.67e5; Renilla normaliser, rep 1: 8625
CG32855 [DRSC13131] → E2F firefly, rep 1: 92368; Renilla normaliser, rep 1: 2516
Ac76E (Adenylyl cyclase 76E) [DRSC09642] → E2F firefly, rep 1: 81070; Renilla normaliser, rep 1: 3532
Ac76E (Adenylyl cyclase 76E) [DRSC09662] → E2F firefly, rep 1: 84372; Renilla normaliser, rep 1: 3920
NimB4 (Nimrod B4) [DRSC01884] → E2F firefly, rep 1: 89292; Renilla normaliser, rep 1: 4164
